The supplement of paper PMC12823440, “Inhibitors supercharge kinase turnover through native proteolytic circuits” (Nature, 2025)
This is one part of the list. Hit calls seldom repeat between salt and free forms of one compound.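 In K562 cells expressing nanoluciferase-fused kinases, luminescence was recorded at 4 h intervals between 2 and 18 h, normalized as percent of control with DMSO at 100% and a positive control at 0%. A significant (2 sigma) signal drop marks a time point as decreased. The authors' rule for a hit is not shown and takes in more than the number of time points.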

Protein sequences, listed by entry. Tags and fused reporters are not part of them. Lines headed by an entry give the natural chain unless they say otherwise; changes in a name come on top.
UniProt P49137, whole entry, looked up: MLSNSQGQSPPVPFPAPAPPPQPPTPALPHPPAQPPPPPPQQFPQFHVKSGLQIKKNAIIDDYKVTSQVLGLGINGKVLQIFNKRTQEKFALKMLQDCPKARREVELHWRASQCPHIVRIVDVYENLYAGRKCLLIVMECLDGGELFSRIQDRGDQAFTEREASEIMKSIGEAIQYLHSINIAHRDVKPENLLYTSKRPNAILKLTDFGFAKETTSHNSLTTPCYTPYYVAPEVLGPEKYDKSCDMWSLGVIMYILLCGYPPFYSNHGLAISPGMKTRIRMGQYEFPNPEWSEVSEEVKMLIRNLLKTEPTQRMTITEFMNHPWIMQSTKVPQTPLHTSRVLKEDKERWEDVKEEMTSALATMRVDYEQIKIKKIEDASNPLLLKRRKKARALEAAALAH
UniProt P29597: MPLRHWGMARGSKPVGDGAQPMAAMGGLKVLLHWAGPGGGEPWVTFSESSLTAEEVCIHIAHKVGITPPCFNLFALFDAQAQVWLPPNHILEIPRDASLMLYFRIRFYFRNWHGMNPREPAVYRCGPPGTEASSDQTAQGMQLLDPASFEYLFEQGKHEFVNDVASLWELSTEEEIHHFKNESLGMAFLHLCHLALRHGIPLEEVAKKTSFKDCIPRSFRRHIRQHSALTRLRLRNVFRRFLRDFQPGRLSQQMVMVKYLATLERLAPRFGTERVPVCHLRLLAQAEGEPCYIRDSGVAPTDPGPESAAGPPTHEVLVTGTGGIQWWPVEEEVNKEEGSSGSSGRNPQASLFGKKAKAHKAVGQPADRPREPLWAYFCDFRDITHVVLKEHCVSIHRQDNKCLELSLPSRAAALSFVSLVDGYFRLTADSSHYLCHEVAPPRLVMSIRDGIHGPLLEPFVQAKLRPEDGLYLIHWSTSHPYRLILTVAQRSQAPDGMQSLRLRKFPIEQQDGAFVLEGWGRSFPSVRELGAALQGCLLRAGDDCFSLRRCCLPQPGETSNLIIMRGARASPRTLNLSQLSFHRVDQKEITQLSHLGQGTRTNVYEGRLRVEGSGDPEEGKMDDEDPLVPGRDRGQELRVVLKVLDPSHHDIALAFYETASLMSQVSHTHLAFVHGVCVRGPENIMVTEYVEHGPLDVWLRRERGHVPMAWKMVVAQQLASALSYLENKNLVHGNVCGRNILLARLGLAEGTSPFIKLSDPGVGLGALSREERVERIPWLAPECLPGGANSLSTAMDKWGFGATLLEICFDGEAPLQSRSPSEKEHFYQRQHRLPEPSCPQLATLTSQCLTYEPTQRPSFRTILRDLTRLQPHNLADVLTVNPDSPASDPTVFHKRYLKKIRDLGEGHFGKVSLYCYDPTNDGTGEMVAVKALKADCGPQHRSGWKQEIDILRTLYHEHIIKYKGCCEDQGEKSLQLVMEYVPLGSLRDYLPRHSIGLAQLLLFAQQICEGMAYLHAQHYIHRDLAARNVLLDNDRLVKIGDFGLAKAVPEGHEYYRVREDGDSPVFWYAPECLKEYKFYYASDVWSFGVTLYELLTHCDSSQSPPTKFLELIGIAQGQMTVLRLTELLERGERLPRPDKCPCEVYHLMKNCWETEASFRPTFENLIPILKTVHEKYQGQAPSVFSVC
UniProt P22607, whole entry, looked up: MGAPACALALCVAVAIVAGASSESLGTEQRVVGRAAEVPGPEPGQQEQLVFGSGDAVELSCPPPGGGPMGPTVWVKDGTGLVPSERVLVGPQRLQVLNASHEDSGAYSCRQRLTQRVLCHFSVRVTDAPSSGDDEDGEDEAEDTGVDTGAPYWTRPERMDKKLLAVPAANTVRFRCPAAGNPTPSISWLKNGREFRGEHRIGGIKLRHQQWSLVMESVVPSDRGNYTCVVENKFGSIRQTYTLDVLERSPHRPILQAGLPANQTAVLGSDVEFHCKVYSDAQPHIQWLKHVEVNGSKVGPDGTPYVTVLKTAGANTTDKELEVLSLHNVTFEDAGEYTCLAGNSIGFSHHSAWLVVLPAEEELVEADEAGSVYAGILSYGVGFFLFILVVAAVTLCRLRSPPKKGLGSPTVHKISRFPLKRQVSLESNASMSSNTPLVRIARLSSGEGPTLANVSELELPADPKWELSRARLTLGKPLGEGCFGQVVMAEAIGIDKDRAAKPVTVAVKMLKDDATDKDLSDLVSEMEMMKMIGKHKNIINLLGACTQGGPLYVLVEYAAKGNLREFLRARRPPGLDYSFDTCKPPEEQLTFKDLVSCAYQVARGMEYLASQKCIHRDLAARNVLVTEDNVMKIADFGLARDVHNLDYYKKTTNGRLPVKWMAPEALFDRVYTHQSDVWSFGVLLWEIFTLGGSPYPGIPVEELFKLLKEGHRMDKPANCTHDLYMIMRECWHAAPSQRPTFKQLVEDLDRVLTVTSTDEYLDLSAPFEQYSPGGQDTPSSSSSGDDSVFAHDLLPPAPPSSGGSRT
UniProt Q05397, whole entry, looked up: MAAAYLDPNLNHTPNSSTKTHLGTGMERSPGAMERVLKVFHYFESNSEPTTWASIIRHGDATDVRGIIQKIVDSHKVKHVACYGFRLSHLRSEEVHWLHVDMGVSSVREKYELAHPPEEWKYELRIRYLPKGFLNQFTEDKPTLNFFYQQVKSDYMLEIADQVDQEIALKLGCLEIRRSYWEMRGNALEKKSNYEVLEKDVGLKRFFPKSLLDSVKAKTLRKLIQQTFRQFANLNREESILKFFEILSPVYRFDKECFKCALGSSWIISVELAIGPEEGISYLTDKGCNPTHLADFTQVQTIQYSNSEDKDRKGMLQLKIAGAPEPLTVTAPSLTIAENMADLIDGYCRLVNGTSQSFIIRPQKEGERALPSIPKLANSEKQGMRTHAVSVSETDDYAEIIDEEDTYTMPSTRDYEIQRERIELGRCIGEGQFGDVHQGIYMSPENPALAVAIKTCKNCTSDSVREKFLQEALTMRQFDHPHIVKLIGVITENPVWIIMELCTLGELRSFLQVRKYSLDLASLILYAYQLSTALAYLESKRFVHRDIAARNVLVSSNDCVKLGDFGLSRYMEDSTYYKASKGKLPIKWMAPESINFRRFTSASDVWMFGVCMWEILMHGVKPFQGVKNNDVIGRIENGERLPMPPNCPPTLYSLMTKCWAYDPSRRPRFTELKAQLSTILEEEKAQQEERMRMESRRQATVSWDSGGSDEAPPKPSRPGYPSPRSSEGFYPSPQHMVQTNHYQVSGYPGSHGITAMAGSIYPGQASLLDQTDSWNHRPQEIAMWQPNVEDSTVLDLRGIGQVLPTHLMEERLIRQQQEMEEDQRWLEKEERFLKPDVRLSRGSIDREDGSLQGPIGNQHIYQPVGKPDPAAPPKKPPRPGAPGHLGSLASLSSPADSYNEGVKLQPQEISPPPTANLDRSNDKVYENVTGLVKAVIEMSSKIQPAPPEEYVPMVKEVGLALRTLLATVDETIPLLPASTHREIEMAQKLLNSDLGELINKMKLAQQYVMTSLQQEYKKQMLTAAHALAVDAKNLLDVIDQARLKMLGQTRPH
UniProt P07947, whole entry, looked up: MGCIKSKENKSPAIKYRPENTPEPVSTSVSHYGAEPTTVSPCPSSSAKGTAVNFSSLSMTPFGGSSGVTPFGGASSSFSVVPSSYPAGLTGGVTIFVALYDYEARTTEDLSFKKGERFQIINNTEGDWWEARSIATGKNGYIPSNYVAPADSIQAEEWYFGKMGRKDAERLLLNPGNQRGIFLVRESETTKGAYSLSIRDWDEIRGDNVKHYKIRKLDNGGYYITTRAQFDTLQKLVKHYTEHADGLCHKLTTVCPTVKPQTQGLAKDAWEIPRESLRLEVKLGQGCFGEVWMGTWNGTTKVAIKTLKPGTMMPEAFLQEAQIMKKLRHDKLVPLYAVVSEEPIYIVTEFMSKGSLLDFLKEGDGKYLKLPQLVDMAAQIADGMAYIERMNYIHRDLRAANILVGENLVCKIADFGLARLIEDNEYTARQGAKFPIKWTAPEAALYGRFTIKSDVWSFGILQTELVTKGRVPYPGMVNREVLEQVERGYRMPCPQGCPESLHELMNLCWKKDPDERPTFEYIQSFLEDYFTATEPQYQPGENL
UniProt P23458: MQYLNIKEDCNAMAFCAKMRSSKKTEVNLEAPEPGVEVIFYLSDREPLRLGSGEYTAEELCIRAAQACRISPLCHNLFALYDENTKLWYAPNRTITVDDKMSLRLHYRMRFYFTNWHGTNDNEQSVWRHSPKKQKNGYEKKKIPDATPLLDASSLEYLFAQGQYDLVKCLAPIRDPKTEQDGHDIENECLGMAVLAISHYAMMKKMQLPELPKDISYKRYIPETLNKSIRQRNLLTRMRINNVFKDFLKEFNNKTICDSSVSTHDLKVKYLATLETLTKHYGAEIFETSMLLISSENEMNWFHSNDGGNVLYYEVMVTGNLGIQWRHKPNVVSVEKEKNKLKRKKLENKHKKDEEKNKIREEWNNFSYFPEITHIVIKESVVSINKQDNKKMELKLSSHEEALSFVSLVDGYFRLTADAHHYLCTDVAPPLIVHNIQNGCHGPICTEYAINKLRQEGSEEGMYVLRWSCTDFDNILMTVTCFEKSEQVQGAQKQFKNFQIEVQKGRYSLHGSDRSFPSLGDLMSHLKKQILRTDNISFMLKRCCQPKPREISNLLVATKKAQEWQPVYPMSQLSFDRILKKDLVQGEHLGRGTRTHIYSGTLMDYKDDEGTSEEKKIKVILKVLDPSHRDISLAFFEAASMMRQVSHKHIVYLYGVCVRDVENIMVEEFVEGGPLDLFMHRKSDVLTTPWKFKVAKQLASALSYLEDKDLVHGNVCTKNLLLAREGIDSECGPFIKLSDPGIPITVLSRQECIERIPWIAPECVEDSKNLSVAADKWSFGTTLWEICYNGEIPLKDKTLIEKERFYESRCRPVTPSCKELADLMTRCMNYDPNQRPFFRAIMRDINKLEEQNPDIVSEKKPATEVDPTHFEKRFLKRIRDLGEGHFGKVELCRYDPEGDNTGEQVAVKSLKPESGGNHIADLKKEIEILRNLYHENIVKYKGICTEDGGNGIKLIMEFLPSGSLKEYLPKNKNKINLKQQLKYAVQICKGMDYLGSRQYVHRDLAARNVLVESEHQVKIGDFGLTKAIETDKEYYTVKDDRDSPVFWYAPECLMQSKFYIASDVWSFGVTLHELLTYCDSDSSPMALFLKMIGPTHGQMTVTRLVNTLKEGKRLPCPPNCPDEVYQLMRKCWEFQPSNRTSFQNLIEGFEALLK
UniProt O75460: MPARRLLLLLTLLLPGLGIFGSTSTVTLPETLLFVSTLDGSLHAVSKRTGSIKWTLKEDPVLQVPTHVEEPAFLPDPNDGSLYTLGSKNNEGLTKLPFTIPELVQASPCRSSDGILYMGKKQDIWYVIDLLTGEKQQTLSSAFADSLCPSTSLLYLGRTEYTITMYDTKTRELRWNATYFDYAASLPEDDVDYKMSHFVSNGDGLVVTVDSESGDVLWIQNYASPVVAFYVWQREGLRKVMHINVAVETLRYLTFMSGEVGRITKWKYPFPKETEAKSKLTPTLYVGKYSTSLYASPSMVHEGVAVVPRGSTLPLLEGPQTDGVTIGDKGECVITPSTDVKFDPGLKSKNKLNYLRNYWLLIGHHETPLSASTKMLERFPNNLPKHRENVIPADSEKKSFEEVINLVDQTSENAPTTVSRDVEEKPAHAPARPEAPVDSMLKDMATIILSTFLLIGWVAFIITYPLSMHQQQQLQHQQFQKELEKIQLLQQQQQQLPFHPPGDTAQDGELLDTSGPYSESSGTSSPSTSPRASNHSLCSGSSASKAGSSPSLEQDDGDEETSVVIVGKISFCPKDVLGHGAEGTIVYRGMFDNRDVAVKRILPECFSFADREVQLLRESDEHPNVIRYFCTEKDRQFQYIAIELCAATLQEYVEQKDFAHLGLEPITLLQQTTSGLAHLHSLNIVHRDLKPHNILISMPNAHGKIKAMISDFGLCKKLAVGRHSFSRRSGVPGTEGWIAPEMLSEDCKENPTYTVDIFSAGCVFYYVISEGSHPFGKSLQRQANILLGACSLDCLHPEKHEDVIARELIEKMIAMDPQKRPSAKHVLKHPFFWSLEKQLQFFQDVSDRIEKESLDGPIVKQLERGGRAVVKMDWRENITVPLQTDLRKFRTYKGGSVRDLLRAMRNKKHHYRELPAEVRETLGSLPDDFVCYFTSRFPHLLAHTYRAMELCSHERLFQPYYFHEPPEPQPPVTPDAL
UniProt P31749: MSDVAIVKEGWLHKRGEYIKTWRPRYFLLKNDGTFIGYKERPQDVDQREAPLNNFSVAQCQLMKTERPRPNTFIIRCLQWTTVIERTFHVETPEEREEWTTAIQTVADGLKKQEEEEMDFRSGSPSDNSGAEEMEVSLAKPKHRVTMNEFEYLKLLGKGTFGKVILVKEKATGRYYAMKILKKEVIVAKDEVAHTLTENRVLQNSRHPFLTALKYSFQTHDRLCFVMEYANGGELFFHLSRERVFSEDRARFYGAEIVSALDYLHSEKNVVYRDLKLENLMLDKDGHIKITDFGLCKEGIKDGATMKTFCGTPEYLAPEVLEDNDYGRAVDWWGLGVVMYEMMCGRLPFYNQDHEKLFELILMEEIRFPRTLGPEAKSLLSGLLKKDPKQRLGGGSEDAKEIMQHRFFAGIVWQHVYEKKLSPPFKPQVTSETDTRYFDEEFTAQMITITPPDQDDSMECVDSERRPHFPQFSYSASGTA

Columns and labels:
Experiment in all cases: number of time points (of 5) at which kinase-Nluc abundance scored as decreased, DMSO-normalised (count); higher = more persistent destabilization
[1] = compound: COc1cc2c(-c3cnn4cc(N5CCC(N6CCN(C)CC6)CC5)cnc34)ccnc2cc1F; details: 10 µM; K562; 2-18 h
Cediranib (maleate) = compound: COc1cc2c(Oc3ccc4[nH]c(C)cc4c3F)ncnc2cc1OCCCN1CCCC1 [Cediranib (maleate)]; details: 2.5 µM; K562; 2-18 h
Cediranib = compound: COc1cc2c(Oc3ccc4[nH]c(C)cc4c3F)ncnc2cc1OCCCN1CCCC1 [Cediranib]; details: 2.5 µM; K562; 2-18 h
[2] = compound: COc1cc2c(cc1OC)-c1c(C)c3ccc(OC)c(OC)c3c[n+]1CC2 [Dehydrocorydaline (chloride)]; details: 10 µM; K562; 2-18 h
Dehydrocorydaline = compound: COc1cc2c(cc1OC)-c1c(C)c3ccc(OC)c(OC)c3c[n+]1CC2 [Dehydrocorydaline]; details: 10 µM; K562; 2-18 h
[3] = compound: COc1cc2nccc(Nc3cc(OC)c(OC)c(OC)c3)c2cc1OC [GAK inhibitor 49 (hydrochloride)]; details: 10 µM; K562; 2-18 h
GAK inhibitor 49 = compound: COc1cc2nccc(Nc3cc(OC)c(OC)c(OC)c3)c2cc1OC [GAK inhibitor 49]; details: 10 µM; K562; 2-18 h
Cabozantinib (S-malate) = compound: COc1cc2nccc(Oc3ccc(NC(=O)C4(C(=O)Nc5ccc(F)cc5)CC4)cc3)c2cc1OC [Cabozantinib (S-malate)]; details: 10 µM; K562; 2-18 h
Cabozantinib = compound: COc1cc2nccc(Oc3ccc(NC(=O)C4(C(=O)Nc5ccc(F)cc5)CC4)cc3)c2cc1OC [Cabozantinib]; details: 2.5 µM; K562; 2-18 h
KN-93 (hydrochloride) = compound: COc1ccc(S(=O)(=O)N(CCO)c2ccccc2CN(C)C/C=C/c2ccc(Cl)cc2)cc1 [KN-93 (hydrochloride)]; details: 2.5 µM; K562; 2-18 h
KN-93 (phosphate) = compound: COc1ccc(S(=O)(=O)N(CCO)c2ccccc2CN(C)C/C=C/c2ccc(Cl)cc2)cc1 [KN-93 (phosphate)]; details: 2.5 µM; K562; 2-18 h
KN-92 (hydrochloride) = compound: COc1ccc(S(=O)(=O)Nc2ccccc2CN(C)C/C=C/c2ccc(Cl)cc2)cc1 [KN-92 (hydrochloride)]; details: 2.5 µM; K562; 2-18 h
KN-92 (phosphate) = compound: COc1ccc(S(=O)(=O)Nc2ccccc2CN(C)C/C=C/c2ccc(Cl)cc2)cc1 [KN-92 (phosphate)]; details: 2.5 µM; K562; 2-18 h
AX-024 hydrochloride = compound: COc1ccc2c(c1)C(c1ccc(F)cc1)=C(CN1CCCC1)CO2 [AX-024 hydrochloride]; details: 10 µM; K562; 2-18 h
[4] = compound: COc1ccc2c(c1)C(c1ccc(F)cc1)=C(CN1CCCC1)CO2; details: 10 µM; K562; 2-18 h
Ilaprazole (sodium) = compound: COc1ccnc(C[S+]([O-])c2nc3cc(-n4cccc4)ccc3[nH]2)c1C [Ilaprazole (sodium)]; details: 10 µM; K562; 2-18 h
Ilaprazole = compound: COc1ccnc(C[S+]([O-])c2nc3cc(-n4cccc4)ccc3[nH]2)c1C [Ilaprazole]; details: 10 µM; K562; 2-18 h
PLX5622 (hemifumarate) = compound: COc1ncc(F)cc1CNc1ccc(Cc2c[nH]c3ncc(C)cc23)c(F)n1 [PLX5622 (hemifumarate)]; details: 10 µM; K562; 2-18 h
[5] = compound: COc1ncc(F)cc1CNc1ccc(Cc2c[nH]c3ncc(C)cc23)c(F)n1; details: 10 µM; K562; 2-18 h
[6] = compound: CS(=O)(=O)N1CCN(Cc2cc3nc(-c4cccc5[nH]ncc45)nc(N4CCOCC4)c3s2)CC1 [Pictilisib (dimethanesulfonate)]; details: 10 µM; K562; 2-18 h

Measured: number of time points

TEC (UniProt P42680)
2: Cabozantinib (S-malate)
0: all other assays above

AURKA (UniProt O14965)
1: Cabozantinib (S-malate) | Cabozantinib | [6]
0: all other assays above

CDK10 (UniProt Q15131)
0: all assays above

ALK (UniProt Q9UM73)
1: Cabozantinib (S-malate)
2: Cabozantinib
0: all other assays above

HER2 (UniProt P04626)
3: [3] | GAK inhibitor 49
2: Cabozantinib (S-malate)
1: Cabozantinib
0: all other assays above

ABL1 (UniProt P00519)
4: GAK inhibitor 49 | Cabozantinib (S-malate) | [6]
3: [3]
2: Cabozantinib
0: all other assays above

IRAK3 (UniProt Q9Y616)
1: Cabozantinib
2: Cabozantinib (S-malate)
0: all other assays above

SYK (UniProt P43405)
0: all assays above

CDK3 (UniProt Q00526)
0: all assays above

DDR1 (UniProt Q08345)
2: Cabozantinib (S-malate)
1: Cabozantinib
3: [3] | GAK inhibitor 49
0: all other assays above

DYRK1B (UniProt Q9Y463)
1: Cabozantinib
2: Cabozantinib (S-malate)
0: all other assays above

CSF1R (UniProt P07333)
1: Cabozantinib (S-malate) | Cabozantinib
0: all other assays above

EGFR_L858R (UniProt P00533)
1: [3] | Cabozantinib
0: all other assays above

STK24 (UniProt Q9Y6E0)
1: Cabozantinib (S-malate)
0: all other assays above

MKNK1 (UniProt Q9BUB5)
2: Cabozantinib
1: GAK inhibitor 49 | Cabozantinib (S-malate)
0: all other assays above

PIK4CA (UniProt P42356)
4: Cabozantinib (S-malate)
2: Cabozantinib
0: all other assays above

PDK1 (UniProt Q15118)
1: [2]
0: all other assays above

MAPKAPK2 (UniProt P49137)
0: all assays above

TYK2 (UniProt P29597)
3: GAK inhibitor 49
1: Cabozantinib
0: all other assays above

CHEK2 (UniProt O96017)
1: Cabozantinib
0: all other assays above

FGFR3 (UniProt P22607)
0: all assays above

LIMK1 (UniProt P53667)
2: Cabozantinib (S-malate)
3: [3] | GAK inhibitor 49 | Cabozantinib
0: all other assays above

BMX (UniProt P51813)
3: Cabozantinib (S-malate) | Cabozantinib
1: GAK inhibitor 49
0: all other assays above

RIPK1 (UniProt Q13546)
2: GAK inhibitor 49 | Cabozantinib (S-malate) | Cabozantinib
0: all other assays above

LIMK2 (UniProt P53671)
3: [3]
1: Cabozantinib (S-malate) | Cabozantinib
0: all other assays above

INSRR (UniProt P14616)
3: [3] | Cabozantinib (S-malate)
2: GAK inhibitor 49 | Cabozantinib
0: all other assays above

PTK2B (UniProt Q14289)
1: Cabozantinib
0: all other assays above

ZAP70 (UniProt P43403)
0: all assays above

PTK2 (UniProt Q05397)
1: Cabozantinib
2: Cabozantinib (S-malate)
0: all other assays above

PRKAA1 (UniProt Q13131)
3: Cabozantinib
1: Cabozantinib (S-malate)
0: all other assays above

GSK3A (UniProt P49840)
0: all assays above

YES1 (UniProt P07947)
1: [3] | Cabozantinib
0: all other assays above

LCK (UniProt P06239)
0: all assays above

DYRK2 (UniProt Q92630)
4: Cabozantinib (S-malate) | Cabozantinib
3: [3] | GAK inhibitor 49
0: all other assays above

PDPK1 (UniProt O15530)
4: [3] | GAK inhibitor 49 | Cabozantinib (S-malate) | Cabozantinib
0: all other assays above

EPHA2 (UniProt P29317)
0: all assays above

EGFR_T790M (UniProt P00533)
0: all assays above

MAPK4 (UniProt P31152)
1: Cabozantinib (S-malate)
0: all other assays above

JAK1 (UniProt P23458)
3: Cabozantinib (S-malate)
1: Cabozantinib
0: all other assays above

RIOK1 (UniProt Q9BRS2)
1: GAK inhibitor 49
2: Cabozantinib (S-malate) | Cabozantinib
0: all other assays above

RIPK2 (UniProt O43353)
2: Cabozantinib (S-malate) | Cabozantinib
3: [1] | [3] | GAK inhibitor 49
0: all other assays above

NTRK3 (UniProt Q16288)
0: all assays above

CDK5 (UniProt Q00535)
0: all assays above

PLK1 (UniProt P53350)
2: Cabozantinib (S-malate)
3: Cabozantinib
0: all other assays above

PDGFRB (UniProt P09619)
4: Cabozantinib (S-malate) | Cabozantinib
0: all other assays above

ERN1 (UniProt O75460)
2: Cabozantinib (S-malate)
1: Cabozantinib
0: all other assays above

CSNK1A1 (UniProt P48729)
1: Cabozantinib
0: all other assays above

RAF1 (UniProt P04049)
2: [3] | GAK inhibitor 49 | Cabozantinib
0: all other assays above

Fetched one by one from the entries so far (five):
EPHA2 (UniProt P29317)
0: all assays above

LCK (UniProt P06239)
0: all assays above

INSRR (UniProt P14616)
3: [3] | Cabozantinib (S-malate)
2: GAK inhibitor 49 | Cabozantinib
0: all other assays above

CDK5 (UniProt Q00535)
0: all assays above

ALK (UniProt Q9UM73)
1: Cabozantinib (S-malate)
2: Cabozantinib
0: all other assays above

Remaining list, next part.

CSNK1D (UniProt P48730)
1: Cabozantinib
0: all other assays above

AKT1 (UniProt P31749)
0: all assays above

ZAK (UniProt Q9NYL2)
1: Cabozantinib
0: all other assays above

AURKB (UniProt Q96GD4)
1: Cabozantinib
0: all other assays above

FGR (UniProt P09769)
0: all assays above

NTRK2 (UniProt Q16620)
0: all assays above

MAP2K2 (UniProt P36507)
0: all assays above

ERBB4_R711C (clone: ERBB4_mut) (UniProt Q15303)
3: Cabozantinib
4: Cabozantinib (S-malate)
2: GAK inhibitor 49
0: all other assays above

2 neighbouring entries already listed:
FGR (UniProt P09769)
0: all assays above

NTRK2 (UniProt Q16620)
0: all assays above

Further entries.

AURKC (UniProt Q9UQB9)
1: Cabozantinib (S-malate)
0: all other assays above

BRAF (UniProt P15056)
3: Cabozantinib (S-malate)
0: all other assays above

ROR2 (UniProt Q01974)
1: Cabozantinib (S-malate)
0: all other assays above

EGFR_L861Q (UniProt P00533)
2: [3]
1: Cabozantinib
3: GAK inhibitor 49
0: all other assays above

EGFR_L718V (UniProt P00533)
1: Cabozantinib
0: all other assays above
